Source: US20080045500A1, “Nerve Regeneration Stimulator” (priority 2004, published 2008)
At least one compound was matched to its structure with a doubt left.

Columns and labels:
Cholinesterase = settings: 10^−5 mol/L; cited from earlier work
[1] = system: rat neural progenitor cells; test: Intracellular calcium concentration of fetal rat neural progenitor cells (Fluo-3); assay type: cell-based; settings: 25 μmol/L agonist, Fluo-3 fluorescence
Protocol: Cerebrums were isolated from fetuses obtained from 14.5 days pregnant SD female rats (Japan SLC, Inc.). Cells were dispersed by pipetting the tissue in cold L-15 medium. These cells were cultured in a suspension containing 20 ng/ml human basic fibroblast growth factor (bFGF) in serum-free D-MEM/F-12 medium (supplemented with B-27, N2 (both from Invitrogen) and gentamicin beforehand). The rat neural progenitor cells are known to form a neurosphere in this medium. After 5 to 7 days, the neurosphere was collected and pipetted to isolate the rat neural progenitor cells, followed by passage culture using the medium described above.
The neural progenitor cells were isolated from the neurosphere that was collected a day before the experiment and suspended in the bFGF-free medium otherwise same as described above. After the number of cells was counted, 50,000 cells each were suspended in 100 μL of the medium described above and dispensed into a 96-flat bottom culture plate. Intracellular Ca^++ concentration was determined using a commercially available kit (Calcium Kit-Fluo-3, Dojindo laboratories) according to the attached instruction. To some of the wells, atropine (muscarine receptor antagonist) was added to 25 μmol/L and cultured at 37° C. for 30 minutes beforehand. […]

In the case of `CNC(=O)Oc1ccc2c(c1)[C@]1(C)CCN(C)[C@@H]1N2C` [physostigmine], the “Inhibition of cholinesterase enzymatic activity” value (Cholinesterase) is listed as “inhibited”.

In the case of `CC(=O)OCC[N+](C)(C)C` [acetylcholine], the “Change of intracellular Ca++ concentration on stimulation” value [1] is reported as “increases”.
